Data: PubChem BioAssay AID2685 (National Center for Advancing Translational Sciences (NCATS), 2010)
Hit rate of the full screen: of about 320,000 compounds, about 2,100 (0.66%) were called active. This list was built around the results that the source calls inconclusive (neither active nor inactive); the mix of calls is not that of the screen. The call rests on the fitted dose curve; in most records, active means well fitted inhibition curve with a large enough effect in the signal ratio, with a control signal flat (not every such curve was filed as active); inconclusive means small, poorly fitted or top-dose-only effect, or effect the other way, or a change in a side signal; inactive means flat fitted curve, though single readings scatter; the % refers to the signal ratio. Potencies beside an inconclusive call are fits to weak or partial responses and may not hold up.

Experiment: qHTS Assay for Lipid Storage Modulators in Drosophila S3 Cells
Conditions: BODIPY lipid droplet fluorescence, 18-24 h, cells fed with added oleic acid; lipid storage change, negative = inhibition: at 46.1 µM (top of the series) unless noted
How it was run: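 Drosophila S3 cells got compounds at several concentrations plus oleic acid (400 uM solution). Laser-scanning cytometry with 488 nm excitation read lipid droplets at 500-530 nm and cells at 575-640 nm. Percent activity was relative to 20 uM Triacsin C.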
On the % scale 0 is the no-effect control and ±100 the full control effect; potency means the concentration at half of the fitted maximal effect.

| Compound | lipid storage change, negative = inhibition | Potency |
| --- | --- | --- |
| COC(=O)C1=C(c2ccc(F)cc2OCc2ccccc2)C[C@@H]2CC[C@H]1N2C(=O)NCCc1ccc(F)cc1 | inconclusive: 7.72% | – |
| FC(F)(F)C1=NC(C(F)(F)F)=NP(N2CCOCC2)(N2CCOCC2)=N1 | – | inconclusive: 0.651 µM [falling, full curve] |
| CCOC(=O)C(NC(=O)CCl)(Nc1ccc(C(O)(C(=O)OCC)C(F)(F)F)cc1)C(F)(F)F (stereo unspecified) | – | inconclusive: 5.8 µM [falling, single point] |
| COc1cc(CN2C(=O)NC(=O)C3(Cc4cc(C)ccc4N(C)C3)C2=O)cc(OC)c1 (stereo unspecified) | inconclusive: 70.7% | – |
| O=C(Nc1nc2ccc(F)cc2s1)Oc1ccccc1 | – | inconclusive: 29.1 µM [activator, single point] |
| CN(C)CCc1nc2ccccc2c(=O)n1-c1ccccc1 | – | inconclusive: 6.51 µM [falling, partial curve, poor fit] |
| O=C(N=Nc1c(O)[nH]c(=O)[nH]c1=O)C1COc2ccccc2O1 (stereo unspecified) | – | inconclusive: 1.3 µM [falling, full curve] |
| O=C1CC(=O)N(c2cccc(Cl)c2)C(=O)N1 | – | inconclusive: 1.84 µM [falling, partial curve, poor fit] |
| CCC(=NCC1CCCO1)c1c(O)n(-c2ccccc2C)c(=O)[nH]c1=O (stereo unspecified) | inconclusive: -5.65% | – |
| COC(=O)C(O)(c1ccc(N(C)S(=O)(=O)c2ccccc2)cc1)C(F)(F)F (stereo unspecified) | inactive | – |
| COc1ccc(-n2c(/C=C/c3cccc(F)c3)nc3ccccc3c2=O)c(OC)c1 | inconclusive: 17.4% | – |
| COc1ccc(-c2nn(CCC#N)cc2C(=O)Nc2ccc(C(C)=O)cc2)cc1 | – | inconclusive: 6.51 µM [activator, single point] |
| COC(=O)C1=C(c2cccc3c2S(=O)(=O)c2ccccc2-3)C[C@@H]2CC[C@H]1N2C(=O)N1CCOCC1 | – | inconclusive: 29.1 µM [activator, single point] |
| O=C(Nc1cccc(OC(=O)N2CCOCC2)c1)N1CCOCC1 | inconclusive: 39.1% | – |
| O=C(N/N=C/c1c(O)n(CCc2ccccc2)c(=O)[nH]c1=O)c1ccccc1O | inconclusive: 50.4% | – |
| COP(=O)(OC)C1(O)C(=O)Nc2ccc(Br)cc21 (stereo unspecified) | – | inconclusive: 3.66 µM [rising, single point] |
| CNS(=O)(=O)Cc1ccc2[nH]cc(CCN(C)C)c2c1 | – | inconclusive: 0.517 µM [falling, full curve] |
| CC(=O)N1CCN(CCN=Cc2c(O)n(-c3ccc(C)cc3)c(=S)[nH]c2=O)CC1 | inconclusive: 6.82% | – |
| COC(=O)C1=C(c2ccc(F)cc2F)C[C@@H]2CC[C@H]1N2C(=O)NCc1ccc(F)cc1 | inconclusive: 13.1% | – |
| COc1ccc(CCn2c(O)c(/C=N/NC(=O)c3ccncc3)c(=O)[nH]c2=O)cc1OC | inconclusive: 18.8% | – |
| C[C@]12CCC(=O)C=C1CC[C@@H]1[C@@H]2CC[C@]2(C)C(=O)CC[C@@H]12 | inconclusive: 13.3% | – |
| CC(=O)O[C@H]1C[C@@H]2CC[C@@H]3[C@H](CC[C@]4(C)C(=O)CC[C@@H]34)[C@@]2(C)C[C@@H]1OC(C)=O | inconclusive: 28.3% | – |
| COC(=O)C1=C(c2ccccc2OCc2ccccc2)C[C@@H]2CC[C@H]1N2C(=O)NCc1ccc(OC)c(OC)c1 | – | inconclusive: 29.1 µM [falling, single point] |
| OC(c1ccccc1)(c1ccccc1)C1CCNCC1 | – | active: 25.9 µM |

| Compound | lipid storage change, negative = inhibition | Potency |
| --- | --- | --- |
| O=C(N/N=C/c1cccnc1)c1cc2ccccc2cc1O | – | inconclusive: 11.2 µM [activator, partial curve, poor fit] |
| COc1ccc(N2C(=O)/C(=C/c3cc(C)n(-c4ccc(C)cn4)c3C)C(=O)NC2=S)c(OC)c1 | inconclusive: -19.4% [at 9.22 µM] | – |
| CC(=O)c1ccc2c(c1)C1C(Cl)C(Sc3ccccc3[N+](=O)[O-])CC1C(c1ccccc1[N+](=O)[O-])N2 (stereo unspecified) | inconclusive: -12.1% | – |
| Cc1cc(C)c(C(=O)N2CCC3(CC2)OCCO3)c(C)c1 | – | inconclusive: 29.1 µM [activator, single point] |
| O=C(CCn1c(=O)oc2ccc(Cl)cc21)N1CCN(Cc2ccccc2)CC1 | – | inconclusive: 0.58 µM [falling, full curve] |
| O=c1[nH]c(=S)n(-c2cccc(Cl)c2)c(O)c1C=NCCN1CCNCC1 | inconclusive: 66% | – |
| COC(=O)C1=C(c2cccc(C#N)c2)C[C@@H]2CC[C@H]1N2C(=O)NC1CCCCC1 | inconclusive: 6.26% | – |
| CCN(CC)CCCN=Cc1c(O)n(-c2ccccc2F)c(=O)[nH]c1=O | inconclusive: -50.1% | – |
| O=C1CC(=O)N(c2cccc(F)c2)C(=O)N1 | – | inconclusive: 6.51 µM [falling, single point] |
| Cc1ccc(Cn2nc(C)c(C=O)c2Cl)cc1 | inconclusive: 14.5% | – |
| CC#CP(=O)(OCC)C(O)(c1ccccc1)C(F)(F)F (stereo unspecified) | – | active: 10.3 µM |
| CC(N)Cc1ccccc1Sc1ccc(O)cc1 (stereo unspecified) | – | inconclusive: 0.0517 µM [falling, full curve, poor fit] |
| O=c1oc2ccccc2c(O)c1C(c1ccccn1)c1c(O)c2ccccc2oc1=O | inconclusive: 2.93% | – |
| O=C(O)CN1C(=O)CN=C(c2ccccn2)c2cc(Cl)ccc21 | inconclusive: -25.4% | – |
| Cn1c(=O)oc2cc(S(=O)(=O)N3CCOCC3)ccc21 | – | inconclusive: 1.84 µM [falling, partial curve, poor fit] |
| C=CCNC(=O)c1c(N)n(CCN2CCOCC2)c2nc3ccccc3nc12 | inconclusive: -4.39% | – |
| O=C1NC(=O)N(CCC2=CCCCC2)C(=O)/C1=C\c1cccs1 | – | inconclusive: 32.6 µM [cytotoxic, single point] |
| CC(=O)C1C2c3ccccc3OC1(C)N=c1s/c(=C/c3cnn(C)c3)c(=O)n12 (stereo unspecified) | inconclusive: 28.4% | – |
| COc1ccc(C2=NS(=O)(=O)N(C)C(C(=O)N3CCC4(CC3)OCCO4)=C2)cc1OC | – | inconclusive: 6.51 µM [falling, partial curve] |
| CNS(=O)(=O)c1ccc(N=Cc2c(O)n(-c3cccc(C)c3)c(=O)[nH]c2=O)cc1 | – | inconclusive: 3.26 µM [falling, full curve, poor fit] |
| COc1cc2c(cc1O)CC1c3c(cc(O)c(OC)c3-2)CCN1C (stereo unspecified) | inconclusive: 5.61% | – |
| CCC(NC(=O)OC(C)(C)C)C(=O)Oc1cc(C)cc2oc(=O)c3c(c12)CCC3 (stereo unspecified) | inconclusive: 116% | – |
| CC12CCC3C(CC=C4CC(O)CCC43C)C1C/C(=C\c1ccccc1F)C2=O (stereo unspecified) | inconclusive: -27.8% | – |
| CN1CCN(Cc2ccc(Br)s2)CC1 | inconclusive: -25.4% | – |

Single records, from the list above. Order of values: lipid storage change, negative = inhibition | Potency
CC(=O)c1ccc2c(c1)C1C(Cl)C(Sc3ccccc3[N+](=O)[O-])CC1C(c1ccccc1[N+](=O)[O-])N2 (stereo unspecified) is listed as inconclusive: -12.1% | –
O=C(O)CN1C(=O)CN=C(c2ccccn2)c2cc(Cl)ccc21 is listed as inconclusive: -25.4% | –
O=c1oc2ccccc2c(O)c1C(c1ccccn1)c1c(O)c2ccccc2oc1=O is listed as inconclusive: 2.93% | –

Later entries.

| Compound | lipid storage change, negative = inhibition | Potency |
| --- | --- | --- |
| CC(=NCCCN1CCOCC1)c1c(O)[nH]c(=O)[nH]c1=O | – | inconclusive: 29.1 µM [falling, single point] |
| COC(=O)C1=C(c2ccc(F)cc2F)C[C@@H]2CC[C@H]1N2C(=O)N1CCOCC1 | inconclusive: 3.01% | – |
| Cc1cc[n+](Cc2ccccc2)cc1 | inconclusive: 45.5% | – |
| O=P(c1ccccc1)(c1ccccc1)N1CCCCC1 | – | inconclusive: 29.1 µM [falling, single point] |
| COC(=O)C1=C(c2ccc(-c3ccccc3)c(F)c2)C[C@@H]2CC[C@H]1N2C(=O)N1CCC(O)CC1 | – | inconclusive: 23.1 µM [falling, single point] |
| COc1cccc(-n2c(CN3CCOCC3)nc3ccc([N+](=O)[O-])cc3c2=O)c1 | inconclusive: 13.8% | – |
| COc1ccc(C(CNC(=O)CCc2ccsc2)N(C)C)cc1 (stereo unspecified) | inconclusive: 71.1% | – |
| Cn1cc(C(=O)OCC(=O)N2CCCCC2)c2ccccc21 | inconclusive: 2.17% | – |
| NC(CC(=O)O)C1CCCCC1 (stereo unspecified) | inconclusive: -14.7% | – |
| COP(=O)(NC(=O)C(Cl)(Cl)Cl)OC | inconclusive: -6.86% | – |
| COc1ccc(OC)c(NP(=O)(Oc2ccccc2)Oc2ccccc2)c1 | inconclusive: 11.4% | – |
| COc1ccc(-c2nc3ccccc3c(=O)n2-c2nccs2)cc1 | inconclusive: -28.8% | – |
| Cc1cccc(OP(=O)(NCc2ccccc2)Oc2cccc(C)c2)c1 | inconclusive: -22.7% | – |
| COc1ccc(N2C(=O)NC(=O)/C(=C\c3ccc([N+](=O)[O-])s3)C2=O)cc1 | inconclusive: -49.4% | – |
| O=c1c2ccccc2nc(-c2ccccc2)n1-c1ccccc1O | inconclusive: 37.7% | – |
| COc1ccc(CCNC(=O)c2c(N)n(CCN3CCOCC3)c3nc4ccccc4nc23)cc1 | inconclusive: -85.9% | – |
| Cn1c(C(=O)N2CCC(C(=O)N3CCC4(CC3)OCCO4)CC2)cc2sccc21 | – | inconclusive: 0.082 µM [falling, full curve, poor fit] |
| COc1ccc(CNC(C)Cc2cccs2)cc1 (stereo unspecified) | inconclusive: -0.613% | – |
| O=[N+]([O-])c1cccc(C2N3CCCN23)c1 (stereo unspecified) | inconclusive: -46.1% [cytotoxic] [at 0.00295 µM] | – |
| COC(=O)C(C)Oc1cc(C)cc2oc(=O)c3c(c12)CCCC3 (stereo unspecified) | – | inconclusive: 6.51 µM [rising, single point] |
| O=P(NS(=O)(=O)c1ccccc1)(Oc1ccccc1)Oc1ccccc1 | – | inconclusive: 0.0651 µM [falling, full curve] |
| COc1ccc(-n2c(O)c(C=Nc3c(C)n(C)n(-c4ccccc4)c3=O)c(=O)[nH]c2=O)cc1 | – | inconclusive: 10.3 µM [falling, partial curve, poor fit] |
| CCOC(=O)N(CC)c1ccc(C(O)(C(=O)OC)C(F)(F)F)cc1 (stereo unspecified) | – | inconclusive: 8.2 µM [activator, partial curve, poor fit] |
